Test results: patent US20210155689A1 (SHANGHAI PHARMAEXPLORER, published 2021)
These are yes or no findings as the source states them, for the method shown. Some entries that bind do so weakly or less than the wild type. Tags and fused reporters may be left off the sequences shown.

Target: T1, human LAG-3 protein with hFc tag (hLAG-3-hFc protein) (human) (UniProt P18627)
T1 sequence: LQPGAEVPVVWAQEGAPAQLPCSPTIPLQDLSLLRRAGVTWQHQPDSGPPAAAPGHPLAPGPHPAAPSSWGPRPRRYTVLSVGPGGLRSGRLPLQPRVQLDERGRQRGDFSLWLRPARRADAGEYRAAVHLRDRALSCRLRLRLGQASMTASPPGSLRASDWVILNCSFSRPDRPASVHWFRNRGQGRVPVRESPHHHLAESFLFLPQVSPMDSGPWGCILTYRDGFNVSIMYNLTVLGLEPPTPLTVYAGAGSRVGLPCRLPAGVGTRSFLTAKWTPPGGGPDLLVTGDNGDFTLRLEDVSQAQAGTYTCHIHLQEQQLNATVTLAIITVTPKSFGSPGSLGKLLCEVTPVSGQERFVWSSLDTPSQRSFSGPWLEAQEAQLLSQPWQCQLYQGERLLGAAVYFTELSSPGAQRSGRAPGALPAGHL
Assay: ELISA, hLAG-3-hFc coated

- binding: binds
B1: LSECtin-His (ligand, UniProt Q6UXB4 54-293, looked up, not shown: small tags and cut ends)
chain: SKASTERAALLDGHDLLRTNASKQTAALGALKEEVGDCHSCCSGTQAQLQTTRAELGEAQAKLMEQESALRELRERVTQGLAEAGRGREDVRTELFRALEAVRLQNNSCEPCPTSWLSFEGSCYFFSVPKTTWAAAQDHCADASAHLVIVGGLDEQGFLTRNTRGRGYWLGLRAVRHLGKVQGYQWVDGVSLSFSHWNQGEPNDAWGRENCVMMLHTGLWNDAPCDSEKDGWICEKRHNC
